Experimental data: US20100041694A1, “AGRICULTURAL COMPOSITION FOR CONTROLLING OR PREVENTING PLANT DISEASES CAUSED BY PLANT PATHOGENIC MICROBES” (Sumitomo Chemical Company, Limited, priority 2007, published 2010)
Some results were stated once for a whole list of compounds, not compound by compound.

Legend:
Format in all cases: in vivo
Botrytis cinerea = assay: Preventing infection by cucumber gray mold, foliage application; details: cucumber (Sagami-Hanjiro), flowable formulation 500 ppm foliage application, then inoculation; 12° C. high humidity 5 days
Sclerotinia sclerotiorum = assay: Preventing infection by cucumber Sclerotinia rot, foliage application; details: cucumber (Sagami-Hanjiro), flowable formulation 500 ppm foliage application, then inoculation; 18° C. high humidity 4 days
Fusarium oxysporum = assay: Preventing infection by tomato wilt by soil treatment (irrigation); details: tomato (Patio) in contaminated soil, 10 mg compound per pot by soil irrigation, 1 month
[1] = test system: Verticillium albo-atrum, V. dahliae, V. nigrescens; assay: Potato blue stem, soil irrigation treatment; details: potato (Danshaku) in contaminated soil, 10 mg compound per pot by soil irrigation, 2 months
Gibberella fujikuroi = assay: Rice bakanae disease, seed treatment; details: contaminated unhulled rice, seed treatment 200 g compound per 100 kg seeds, 1 month
Gaeumannomyces graminis = assay: Malt damping off, seed treatment; details: contaminated malt seeds, seed treatment 200 g compound per 100 kg seeds, 1 month

CC(C)CCOc1cccc(CNC(=O)c2ccc3ncccc3n2)c1F [Compound 116]
infected areas of treated plants relative to infected areas of untreated plants (Botrytis cinerea): ≤ 10%
infected areas of treated plants relative to infected areas of untreated plants (Sclerotinia sclerotiorum): ≤ 10%
blotches in treated plants (Fusarium oxysporum): no blotches are found
growth of treated plants (Fusarium oxysporum): favorably grow at a level equivalent to that of plants that grow have in noncontaminated soil
blotches in treated plants [1]: no blotches are found
growth of treated plants [1]: favorably grow at a level equivalent to that of plants that grow in noncontaminated soil
growth of treated plants (Gibberella fujikuroi): favorably grow at a level equivalent to that of plants that have grown from noncontaminated unhulled rice
growth of treated plants (Gaeumannomyces graminis): favorably grow at a level equivalent to that of plants that grow from noncontaminated seeds

O=C(NCc1cccc(OCC2CCC2)c1)c1ccc2ncccc2c1 [Compound 123]
infected areas of treated plants relative to infected areas of untreated plants (Botrytis cinerea): ≤ 10%
infected areas of treated plants relative to infected areas of untreated plants (Sclerotinia sclerotiorum): ≤ 10%
blotches in treated plants (Fusarium oxysporum): no blotches are found
growth of treated plants (Fusarium oxysporum): favorably grow at a level equivalent to that of plants that grow have in noncontaminated soil
blotches in treated plants [1]: no blotches are found
growth of treated plants [1]: favorably grow at a level equivalent to that of plants that grow in noncontaminated soil
growth of treated plants (Gibberella fujikuroi): favorably grow at a level equivalent to that of plants that have grown from noncontaminated unhulled rice
growth of treated plants (Gaeumannomyces graminis): favorably grow at a level equivalent to that of plants that grow from noncontaminated seeds

O=C(NCc1cccc(Oc2ccccc2)c1F)c1ccc2ncccc2c1 [Compound 129]
infected areas of treated plants relative to infected areas of untreated plants (Botrytis cinerea): ≤ 10%
infected areas of treated plants relative to infected areas of untreated plants (Sclerotinia sclerotiorum): ≤ 10%
blotches in treated plants (Fusarium oxysporum): no blotches are found
growth of treated plants (Fusarium oxysporum): favorably grow at a level equivalent to that of plants that grow have in noncontaminated soil
blotches in treated plants [1]: no blotches are found
growth of treated plants [1]: favorably grow at a level equivalent to that of plants that grow in noncontaminated soil
growth of treated plants (Gibberella fujikuroi): favorably grow at a level equivalent to that of plants that have grown from noncontaminated unhulled rice
growth of treated plants (Gaeumannomyces graminis): favorably grow at a level equivalent to that of plants that grow from noncontaminated seeds

O=C(NCc1ccc(Cc2ccccc2)cc1)c1ccc2ncccc2n1 [Compound 132]
infected areas of treated plants relative to infected areas of untreated plants (Botrytis cinerea): ≤ 10%
infected areas of treated plants relative to infected areas of untreated plants (Sclerotinia sclerotiorum): ≤ 10%
blotches in treated plants (Fusarium oxysporum): no blotches are found
growth of treated plants (Fusarium oxysporum): favorably grow at a level equivalent to that of plants that grow have in noncontaminated soil
blotches in treated plants [1]: no blotches are found
growth of treated plants [1]: favorably grow at a level equivalent to that of plants that grow in noncontaminated soil
growth of treated plants (Gibberella fujikuroi): favorably grow at a level equivalent to that of plants that have grown from noncontaminated unhulled rice
growth of treated plants (Gaeumannomyces graminis): favorably grow at a level equivalent to that of plants that grow from noncontaminated seeds

O=C(NCc1cccc(F)c1)c1ccc2ncccc2n1 [Compound 134]
infected areas of treated plants relative to infected areas of untreated plants (Botrytis cinerea): ≤ 10%
infected areas of treated plants relative to infected areas of untreated plants (Sclerotinia sclerotiorum): ≤ 10%
blotches in treated plants (Fusarium oxysporum): no blotches are found
growth of treated plants (Fusarium oxysporum): favorably grow at a level equivalent to that of plants that grow have in noncontaminated soil
blotches in treated plants [1]: no blotches are found
growth of treated plants [1]: favorably grow at a level equivalent to that of plants that grow in noncontaminated soil
growth of treated plants (Gibberella fujikuroi): favorably grow at a level equivalent to that of plants that have grown from noncontaminated unhulled rice
growth of treated plants (Gaeumannomyces graminis): favorably grow at a level equivalent to that of plants that grow from noncontaminated seeds

O=C(NCc1cccc(OCC2CC2)c1F)c1ccc2ncccc2c1 [Compound 135]
infected areas of treated plants relative to infected areas of untreated plants (Botrytis cinerea): ≤ 10%
infected areas of treated plants relative to infected areas of untreated plants (Sclerotinia sclerotiorum): ≤ 10%
blotches in treated plants (Fusarium oxysporum): no blotches are found
growth of treated plants (Fusarium oxysporum): favorably grow at a level equivalent to that of plants that grow have in noncontaminated soil
blotches in treated plants [1]: no blotches are found
growth of treated plants [1]: favorably grow at a level equivalent to that of plants that grow in noncontaminated soil
growth of treated plants (Gibberella fujikuroi): favorably grow at a level equivalent to that of plants that have grown from noncontaminated unhulled rice
growth of treated plants (Gaeumannomyces graminis): favorably grow at a level equivalent to that of plants that grow from noncontaminated seeds

O=C(NCc1ccc(OCc2ccc(F)cc2)cc1F)c1ccc2ncccc2c1 [Compound 137]
infected areas of treated plants relative to infected areas of untreated plants (Botrytis cinerea): ≤ 10%
infected areas of treated plants relative to infected areas of untreated plants (Sclerotinia sclerotiorum): ≤ 10%
blotches in treated plants (Fusarium oxysporum): no blotches are found
growth of treated plants (Fusarium oxysporum): favorably grow at a level equivalent to that of plants that grow have in noncontaminated soil
blotches in treated plants [1]: no blotches are found
growth of treated plants [1]: favorably grow at a level equivalent to that of plants that grow in noncontaminated soil
growth of treated plants (Gibberella fujikuroi): favorably grow at a level equivalent to that of plants that have grown from noncontaminated unhulled rice
growth of treated plants (Gaeumannomyces graminis): favorably grow at a level equivalent to that of plants that grow from noncontaminated seeds

C=C(Cl)COc1cccc(CNC(=O)c2ccc3ncccc3c2)c1 [Compound 147]
infected areas of treated plants relative to infected areas of untreated plants (Botrytis cinerea): ≤ 10%
infected areas of treated plants relative to infected areas of untreated plants (Sclerotinia sclerotiorum): ≤ 10%
blotches in treated plants (Fusarium oxysporum): no blotches are found
growth of treated plants (Fusarium oxysporum): favorably grow at a level equivalent to that of plants that grow have in noncontaminated soil
blotches in treated plants [1]: no blotches are found
growth of treated plants [1]: favorably grow at a level equivalent to that of plants that grow in noncontaminated soil
growth of treated plants (Gibberella fujikuroi): favorably grow at a level equivalent to that of plants that have grown from noncontaminated unhulled rice
growth of treated plants (Gaeumannomyces graminis): favorably grow at a level equivalent to that of plants that grow from noncontaminated seeds

COc1ccc(CNC(=O)c2ccc3ncccc3c2)s1 [Compound 148]
infected areas of treated plants relative to infected areas of untreated plants (Botrytis cinerea): ≤ 10%
infected areas of treated plants relative to infected areas of untreated plants (Sclerotinia sclerotiorum): ≤ 10%
blotches in treated plants (Fusarium oxysporum): no blotches are found
growth of treated plants (Fusarium oxysporum): favorably grow at a level equivalent to that of plants that grow have in noncontaminated soil
blotches in treated plants [1]: no blotches are found
growth of treated plants [1]: favorably grow at a level equivalent to that of plants that grow in noncontaminated soil
growth of treated plants (Gibberella fujikuroi): favorably grow at a level equivalent to that of plants that have grown from noncontaminated unhulled rice
growth of treated plants (Gaeumannomyces graminis): favorably grow at a level equivalent to that of plants that grow from noncontaminated seeds

O=C(NCc1cc(F)ccc1F)c1ccc2ncccc2n1 [Compound 152]
infected areas of treated plants relative to infected areas of untreated plants (Botrytis cinerea): ≤ 10%
infected areas of treated plants relative to infected areas of untreated plants (Sclerotinia sclerotiorum): ≤ 10%
blotches in treated plants (Fusarium oxysporum): no blotches are found
growth of treated plants (Fusarium oxysporum): favorably grow at a level equivalent to that of plants that grow have in noncontaminated soil
blotches in treated plants [1]: no blotches are found
growth of treated plants [1]: favorably grow at a level equivalent to that of plants that grow in noncontaminated soil
growth of treated plants (Gibberella fujikuroi): favorably grow at a level equivalent to that of plants that have grown from noncontaminated unhulled rice
growth of treated plants (Gaeumannomyces graminis): favorably grow at a level equivalent to that of plants that grow from noncontaminated seeds

CC(C)COc1cccc(CNC(=O)c2ccc3ncccc3c2)c1F [Compound 155]
infected areas of treated plants relative to infected areas of untreated plants (Botrytis cinerea): ≤ 10%
infected areas of treated plants relative to infected areas of untreated plants (Sclerotinia sclerotiorum): ≤ 10%
blotches in treated plants (Fusarium oxysporum): no blotches are found
growth of treated plants (Fusarium oxysporum): favorably grow at a level equivalent to that of plants that grow have in noncontaminated soil
blotches in treated plants [1]: no blotches are found
growth of treated plants [1]: favorably grow at a level equivalent to that of plants that grow in noncontaminated soil
growth of treated plants (Gibberella fujikuroi): favorably grow at a level equivalent to that of plants that have grown from noncontaminated unhulled rice
growth of treated plants (Gaeumannomyces graminis): favorably grow at a level equivalent to that of plants that grow from noncontaminated seeds

COc1cccc(Oc2cccc(CNC(=O)c3ccc4ncccc4c3)c2)c1 [Compound 164]
infected areas of treated plants relative to infected areas of untreated plants (Botrytis cinerea): ≤ 10%
infected areas of treated plants relative to infected areas of untreated plants (Sclerotinia sclerotiorum): ≤ 10%
blotches in treated plants (Fusarium oxysporum): no blotches are found
growth of treated plants (Fusarium oxysporum): favorably grow at a level equivalent to that of plants that grow have in noncontaminated soil
blotches in treated plants [1]: no blotches are found
growth of treated plants [1]: favorably grow at a level equivalent to that of plants that grow in noncontaminated soil
growth of treated plants (Gibberella fujikuroi): favorably grow at a level equivalent to that of plants that have grown from noncontaminated unhulled rice
growth of treated plants (Gaeumannomyces graminis): favorably grow at a level equivalent to that of plants that grow from noncontaminated seeds
